The list shows a part of the results, in another mix than the full data. For some of these results: At the low end of the ranking the order means little.

For the first assay, the target named is T1, ELK1 (UniProt P19419).
T1 sequence: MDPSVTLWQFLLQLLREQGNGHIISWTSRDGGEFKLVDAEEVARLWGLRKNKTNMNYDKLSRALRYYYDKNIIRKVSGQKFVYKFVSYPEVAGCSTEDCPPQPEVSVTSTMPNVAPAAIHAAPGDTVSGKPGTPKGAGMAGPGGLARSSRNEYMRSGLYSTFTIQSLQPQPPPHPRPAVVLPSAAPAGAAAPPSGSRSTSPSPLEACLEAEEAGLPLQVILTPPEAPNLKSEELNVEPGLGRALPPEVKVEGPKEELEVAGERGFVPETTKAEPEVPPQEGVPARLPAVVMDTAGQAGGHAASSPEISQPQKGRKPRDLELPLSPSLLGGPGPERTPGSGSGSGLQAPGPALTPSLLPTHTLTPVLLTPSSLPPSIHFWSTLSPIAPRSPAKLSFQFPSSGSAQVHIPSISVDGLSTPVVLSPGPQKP
The assay can be described thus: DAPPL (digital affinity profiling via proximity ligation, sequencing). The settings on record: 10 mM Tris-HCl pH 7.5, 50 mM NaCl, 1 mM DTT, 4% glycerol, room temperature, 30 min; GST-TFs on glutathione beads, 16-mer random dsDNA library, 0.1% …; high values mean tight binding; double strand, one strand shown; scale: fold enrichment (6-mer frequency, TF over GST control).
GATGAT showed a binding signal of 1.37.

Regarding AAAGCG, the binding signal amounted to 0.996.

Sequence ATGATA returned a binding signal of 1.23.

As to CAAAAT, the binding signal worked out at 1.11.

ATTTGG returned a binding signal of 1.33.

The sequence AAAAAA came in with a binding signal of 1.28.

Regarding AATCGC, the binding signal was 1.09.

With CCCTTT, the binding signal worked out at 1.36.

The sequence AGATCC had a binding signal of 1.12.

In turn, TCGCTT showed a binding signal of 1.3.

Turning to TTAACC, the binding signal was determined as 1.25.

In turn, ATGCGG yielded a binding signal of 1.22.

As for TCTAAT, the binding signal was 1.17.

For the sequence CATATT, the binding signal came to 1.17.

In turn, CTGTCA had a binding signal of 1.11.

In turn, TGGTAC registered a binding signal of 1.23.

In turn, CCATTC returned a binding signal of 1.09.

For the sequence GGAACA, the binding signal was 1.09.

As to CTCTGG, the binding signal was 1.5.

TCACAG: the binding signal was 1.15.

As for TGCTAA, the binding signal was 1.37.

CGACCC returned a binding signal of 1.46.

Sequence GCTCGC showed a binding signal of 1.29.

TCTCCG showed a binding signal of 1.49.

On to TGCTCT, for which the binding signal is 1.48.

CTATCT displayed a binding signal of 1.43.

Regarding CGAAGC, the binding signal is 1.36.

Regarding TATATA, the binding signal is 1.37.

CCCGCC registered a binding signal of 1.75.

GCTTAT came in with a binding signal of 1.21.

Take AGCCCT: the binding signal came out at 1.14.

With AAATTA, the binding signal was determined as 1.18.

Sequence TGACCT returned a binding signal of 1.82.

In turn, CATTTC gave a binding signal of 1.86.

On to ATGACT, for which the binding signal worked out at 1.42.

AACATG displayed a binding signal of 1.21.

The sequence AAGTGG yielded a binding signal of 1.19.

TCGCTC displayed a binding signal of 1.27.

Turning to ACTCCT, the binding signal came out at 1.55.

In the next assay the target is T2, ETS2 (UniProt P15036).
T2 sequence: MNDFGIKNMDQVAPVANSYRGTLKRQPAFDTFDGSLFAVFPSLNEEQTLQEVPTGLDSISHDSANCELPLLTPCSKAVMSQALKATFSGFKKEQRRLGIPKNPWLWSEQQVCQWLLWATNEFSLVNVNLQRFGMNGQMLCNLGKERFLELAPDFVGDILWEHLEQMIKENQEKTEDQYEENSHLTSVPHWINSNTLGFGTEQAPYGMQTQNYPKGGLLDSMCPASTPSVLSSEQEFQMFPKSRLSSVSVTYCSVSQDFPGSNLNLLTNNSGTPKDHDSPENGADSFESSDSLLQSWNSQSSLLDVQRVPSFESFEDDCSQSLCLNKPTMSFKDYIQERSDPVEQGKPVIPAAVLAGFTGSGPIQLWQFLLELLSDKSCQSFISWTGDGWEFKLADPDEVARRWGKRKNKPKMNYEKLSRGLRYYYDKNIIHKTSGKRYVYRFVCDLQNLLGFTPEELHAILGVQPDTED
The assay is described as above. As to conditions: 10 mM Tris-HCl pH 7.5, 50 mM NaCl, 1 mM DTT, 4% glycerol, room temperature, 30 min; GST-TFs on glutathione beads, 16-mer random dsDNA library, 0.1% …; high values mean tight binding; double strand, one strand shown; scale: fold enrichment (6-mer frequency, TF over GST control).
Sequence TGGTAC had a binding signal of 1.19.

As for TCTCCG, the binding signal came out at 1.62.

Turning to CTATCT, the binding signal turned out to be 1.39.

As for TCGCTC, the binding signal stood at 1.32.

These data come from publication PMC7862700.
